Here are results for 16 molecules from the supplement of paper PMC8960247.

SMILES strings stand for the structures. Counter-ions that a name gives are not always drawn. The data scatter; read single values as rough.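 The cells are immortalized human renal angiomyolipoma cells carrying an empty vector, so TSC2 stays lost. Viability was read by a luminescent ATP assay and normalized to vehicle-treated wells on each plate, in low-serum medium where TSC2-rescued cells do not grow.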

The assay concerns 621-102 (TSC2-deficient). As to the kind of experiment: relative viability vs DMSO (fraction); higher = less cytotoxic. Conditions: serum: 0.1% FBS, 72 h.

For `Cc1csc(-c2nnc(Nc3ccc(Oc4ncccc4-c4ccnc(N)n4)cc3)c3ccccc23)c1` [AMG 900], the relative viability was 0.775 (0.0128 nM); 0.665 (0.064 nM); 0.533 (0.32 nM); 0.0233 (1.6 nM); 0.0178 (8 nM); 0.0196 (40 nM). For the same molecule, the relative viability by setting is: (200 nM) 0.0325; (1000 nM) 0.0435; (5000 nM) 0.028.

On to `CN(C)Cc1cccc(N/C(=C2\C(=O)Nc3cc(C(N)=O)ccc32)c2ccccc2)c1`, for which the relative viability was determined as 0.709 (0.0128 nM); 0.748 (0.064 nM); 0.693 (0.32 nM); 0.758 (1.6 nM); 0.701 (8 nM); 0.675 (40 nM). Also, the relative viability reads like this: (200 nM) 0.625; (1000 nM) 0.632; (5000 nM) 0.594.

In turn, `CC1=NN(c2ccc(C)c(C)c2)C(=O)/C1=N\Nc1cccc(-c2cccc(C(=O)O)c2)c1O` [Eltrombopag Olamine] yielded a relative viability (0.0128 nM) of 0.792; a relative viability (0.064 nM) of 0.719; a relative viability (0.32 nM) of 0.663; a relative viability (1.6 nM) of 0.687; a relative viability (8 nM) of 0.671; a relative viability (40 nM) of 0.313. Moreover, the relative viability was determined as 0.207 (200 nM), 0.0862 (1000 nM) and 0.0321 (5000 nM).

Turning to `CC(C)C[C@H](NC(=O)CNC(=O)c1cc(Cl)ccc1Cl)B1OC(=O)C(CC(=O)O)(CC(=O)O)O1` [MLN9708], the relative viability is, setting by setting: (0.0128 nM) 0.869; (0.064 nM) 0.843; (0.32 nM) 0.812; (1.6 nM) 0.728; (8 nM) 0.802; (40 nM) 0.302. Besides, the relative viability turned out to be 0.0119 (200 nM), 0.0127 (1000 nM) and 0.0131 (5000 nM).

For the molecule `Cc1cc(Nc2cc(N3CCN(C)CC3)nc(Sc3ccc(NC(=O)C4CC4)cc3)n2)n[nH]1` [VX-680], the relative viability reads like this: (0.0128 nM) 0.653; (0.064 nM) 0.829; (0.32 nM) 0.74; (1.6 nM) 0.808; (8 nM) 0.764; (40 nM) 0.652. The relative viability by setting is: (200 nM) 0.0659; (1000 nM) 0.0269; (5000 nM) 0.0217.

Consider `COC(=O)[C@@H]1[C@H]2C[C@H]3c4[nH]c5ccccc5c4CCN3C[C@@H]2CC[C@@H]1O` [Yohimbine hydrochloride], for which the relative viability runs as follows: (0.0128 nM) 0.93; (0.064 nM) 0.955; (0.32 nM) 0.828; (1.6 nM) 0.847; (8 nM) 0.831; (40 nM) 0.865. Also, the relative viability is, setting by setting: (200 nM) 0.832; (1000 nM) 0.79; (5000 nM) 0.733.

On to `Clc1ccc(C2(c3ccc(-c4cn[nH]c4)cc3)CCNCC2)cc1` [AT7867], for which the relative viability is 0.852 (0.0128 nM); 0.854 (0.064 nM); 0.875 (0.32 nM); 0.862 (1.6 nM); 0.996 (8 nM); 0.859 (40 nM). Besides, the relative viability by setting is: (200 nM) 0.619; (1000 nM) 0.268; (5000 nM) 0.0543.

In the case of `C=C1C[C@@H]2[C@H](CC[C@]3(C)C(=O)CC[C@@H]23)[C@@]2(C)C=CC(=O)C=C12` [Exemestane], the relative viability was 1.49 (0.0128 nM); 1.53 (0.064 nM); 1.92 (0.32 nM); 1.4 (1.6 nM); 0.024 (8 nM); 0.00955 (40 nM). Besides, the relative viability stood at 0.00877 (200 nM), 0.00845 (1000 nM) and 0.00753 (5000 nM).

On to `C=CCNC1=C2C[C@@H](C)C[C@H](OC)[C@H](O)[C@@H](C)/C=C(\C)[C@H](OC(N)=O)[C@@H](OC)/C=C\C=C(/C)C(=O)NC(=CC1=O)C2=O` [17-AAG (Tanespimycin)], for which the relative viability is 0.873 (0.0128 nM); 0.831 (0.064 nM); 0.873 (0.32 nM); 0.953 (1.6 nM); 0.827 (8 nM); 0.815 (40 nM). Also, the relative viability (200 nM) is 0.817, the relative viability (1000 nM) amounted to 0.804 and the relative viability (5000 nM) came to 0.83.

On to `OC(CN1CCN(c2cccc(Cl)c2)CC1)C(c1ccccc1)c1ccccc1` (centres undefined), for which the relative viability runs as follows: (0.0128 nM) 0.979; (0.064 nM) 1.16; (0.32 nM) 1.16; (1.6 nM) 0.899; (8 nM) 0.713; (40 nM) 0.614. In addition, the relative viability was found to be 0.765 (200 nM), 0.776 (1000 nM) and 0.468 (5000 nM).

Molecule `COc1c(C)cnc(Cn2cnc3c(Cl)nc(N)nc32)c1C` [BIIB021] displayed a relative viability (0.0128 nM) of 0.806; a relative viability (0.064 nM) of 0.955; a relative viability (0.32 nM) of 0.893; a relative viability (1.6 nM) of 0.704; a relative viability (8 nM) of 0.696; a relative viability (40 nM) of 0.675. Further, the relative viability came out at 0.678 (200 nM), 0.863 (1000 nM) and 0.634 (5000 nM).

Regarding `FC(F)(F)c1ccc(/C=C/c2nc(COc3ccc(CCCCn4ccnn4)cc3)co2)cc1` [Mubritinib (TAK 165)], the relative viability worked out at 0.992 (0.0128 nM); 0.955 (0.064 nM); 0.952 (0.32 nM); 1 (1.6 nM); 0.867 (8 nM); 1.02 (40 nM). Also, the relative viability (200 nM) worked out at 0.889, the relative viability (1000 nM) was 0.64 and the relative viability (5000 nM) came to 0.663.

As to `Cc1[nH]c(=O)c(C#N)cc1-c1ccncc1` [Milrinone], the relative viability came out at 0.561 (0.0128 nM); 0.742 (0.064 nM); 0.68 (0.32 nM); 0.678 (1.6 nM); 0.566 (8 nM); 0.602 (40 nM). Also, the relative viability was 0.55 (200 nM), 0.577 (1000 nM) and 0.575 (5000 nM).

As to `CN(C)CC[C@H](CSc1ccccc1)Nc1ccc(S(=O)(=O)NC(=O)c2ccc(N3CCN(Cc4ccccc4-c4ccc(Cl)cc4)CC3)cc2)cc1[N+](=O)[O-]` [ABT-737], the relative viability is, setting by setting: (0.0128 nM) 0.57; (0.064 nM) 0.367; (0.32 nM) 0.717; (1.6 nM) 0.691; (8 nM) 0.722; (40 nM) 0.68. The relative viability runs as follows: (200 nM) 0.428; (1000 nM) 0.0153; (5000 nM) 0.0075.

For `CNC(=C[N+](=O)[O-])NCCSCc1ccc(CN(C)C)o1` [Ranitidine], the relative viability is, setting by setting: (0.0128 nM) 0.862; (0.064 nM) 0.852; (0.32 nM) 0.861; (1.6 nM) 0.912; (8 nM) 0.781; (40 nM) 0.848. In addition, the relative viability runs as follows: (200 nM) 0.721; (1000 nM) 0.2; (5000 nM) 0.0164.

In turn, `Nc1ncnc2c1c(-c1cccc(OCc3ccccc3)c1)cn2C1CC(CN2CCCC2)C1` (centres undefined) [NVP-ADW742] returned a relative viability (0.0128 nM) of 0.922; a relative viability (0.064 nM) of 0.947; a relative viability (0.32 nM) of 0.34; a relative viability (1.6 nM) of 0.845; a relative viability (8 nM) of 0.745; a relative viability (40 nM) of 0.712. The relative viability was found to be 0.0356 (200 nM), 0.0216 (1000 nM) and 0.024 (5000 nM).
